{"source": "patent US20120094998A1", "about": "“Oligomer-Protein Tyrosine Kinase Inhibitor Conjugates” (Nektar Therapeutics, priority 2009, published 2012)", "origin": "cited, not measured here", "settings": "control compounds of the Caco-2 test; cited from earlier work"}
{"compound": "CC(C)NCC(O)COc1ccc(CC(N)=O)cc1", "note": "(stereo not shown) [atenolol]", "values": [{"measurement": "human absorption", "result": "approximately 50%"}]}
